Measurements as given in PubChem BioAssay AID2685 (National Center for Advancing Translational Sciences (NCATS), 2010).
Some of the results follow. Further columns of the screen follow, without active or inactive calls. The list favours compounds with an active or inconclusive main result. The note in brackets gives the kind of curve behind each potency; many fits are weak.

Assay: qHTS Assay for Lipid Storage Modulators in Drosophila S3 Cells;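 for cell number change: cells counted by Cell Tracker Red CMTPX staining in the red channel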
Settings: BODIPY lipid droplet fluorescence, 18-24 h; for cell number change: measured here: cell count max response, cells fed with added oleic acid
Method in brief: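 Laser-scanning cytometry quantifies lipid droplet accumulation (500–530 nm total intensity; droplet/cell object ratio) in oleic acid-fed (400 uM added) Drosophila S3 cells treated with a concentration series. 20 uM Triacsin C defined 100% inhibition.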

[1] = measured here: cell number channel AC50, cells fed with added oleic acid
[2] = measured here: lipid fluorescence (Fed channel) AC50, cells fed with added oleic acid

Row | Structure (SMILES) | cell number change [%] | AC50 [1] | AC50 [2]
1 | COc1ccccc1NC(=O)/C(=C\c1cccnc1)NC(=O)c1ccccc1 | 10.5 |  | 
2 | CCN1CCc2c(OCC(=O)N3CCCCC3)cccc2C1=O | 20.6 | 6510 nM [rising, single point] | 1300 nM [rising, single point]
3 | N=c1nc(SCCC(=O)O)ss1 | -39.3 | 461 nM [falling, full curve, poor fit] | 18400 nM [falling, partial curve]
4 | Cc1ccc2c(c1)C=CC(C#N)N2C(=O)c1ccccc1 (stereo not drawn) |  | 651 nM [rising, full curve] | 920 nM [rising, full curve]
5 | COCc1[nH]nc2c1C1(CCC3(CC1)OCCO3)C(C#N)=C(N)O2 | -36.4 | 3260 nM [falling, full curve] | 580 nM [falling, full curve, poor fit]
6 | CC(=O)NCCc1nc2ccccc2n1Cc1ccc(Cl)cc1 | -0.727 |  | 
7 | Cc1cccc(C(=O)Nc2ccccc2C(=O)OCC(=O)Nc2ccc(C#N)cc2)c1 | -0.804 |  | 
8 | COCCN(C(=O)CSc1nnc(-c2ccc(C)c(C)c2)o1)c1c(N)n(CC(C)C)c(=O)[nH]c1=O | 13.3 |  | 
9 | Nc1nc(SCC(=O)Nc2ncc(Cl)cc2Cl)n[nH]1 | 16.2 |  | 23100 nM [rising, single point]
10 | COC(=O)c1ccc(CN2CCCCC2)cc1 | -13.3 |  | 130 nM [falling, full curve, poor fit]
11 | COC(=O)c1cc(OC)c(OC)cc1NCC(=O)Nc1ccc(OC)c(OC)c1 | 5.94 | 820 nM [falling, partial curve, poor fit] | 92 nM [rising, full curve, poor fit]
12 | O=C(NC1CCCCC1)C1(S(=O)(=O)c2ccc(Cl)cc2)CC1 | 6.67 |  | 
13 | COC(=O)c1cc(S(=O)(=O)NCC2CCN(Cc3ccc(F)cc3)CC2)c[nH]1 | 11.5 |  | 29100 nM [falling, single point]
14 | COc1ccc(N(CC(=O)NCCC2=CCCCC2)S(=O)(=O)c2ccccc2)c(OC)c1 | -24.4 |  | 2060 nM [falling, partial curve, poor fit]
15 | Cc1cc(Cl)ccc1OCC(=O)N1CCCN(C(=O)COc2ccc(Cl)cc2C)CC1 | -13.6 |  | 6510 nM [rising, single point]
16 | Cc1ccc(S(=O)(=O)N2CCN(Cc3ccccc3)CC2)cc1 | 11.1 |  | 580 nM [falling, single point]
17 | O=C(O)c1ccc(OCCOc2ccccc2)cc1 | -49.4 | 29100 nM [falling, single point] | 

Part of the list above in order of count of non-hydrogen atoms, descending:
Row | Structure (SMILES) | cell number change [%] | AC50 [1] | AC50 [2]
15 | Cc1cc(Cl)ccc1OCC(=O)N1CCCN(C(=O)COc2ccc(Cl)cc2C)CC1 | -13.6 |  | 6510 nM [rising, single point]
5 | COCc1[nH]nc2c1C1(CCC3(CC1)OCCO3)C(C#N)=C(N)O2 | -36.4 | 3260 nM [falling, full curve] | 580 nM [falling, full curve, poor fit]
2 | CCN1CCc2c(OCC(=O)N3CCCCC3)cccc2C1=O | 20.6 | 6510 nM [rising, single point] | 1300 nM [rising, single point]
12 | O=C(NC1CCCCC1)C1(S(=O)(=O)c2ccc(Cl)cc2)CC1 | 6.67 |  | 
9 | Nc1nc(SCC(=O)Nc2ncc(Cl)cc2Cl)n[nH]1 | 16.2 |  | 23100 nM [rising, single point]
